These are yes or no findings as the source states them, for the method shown. In cells and extracts the contact can be indirect. Some entries that bind do so weakly or less than the wild type. For part of these data: Tags and fused reporters may be left off the sequences shown.
How the values were obtained:
[1] = biological target: T1, Flag-CNTNAP2-ecto (ectodomain of CNTNAP2) (human) (UniProt Q9UHC6); assay: pull-down
T1 sequence: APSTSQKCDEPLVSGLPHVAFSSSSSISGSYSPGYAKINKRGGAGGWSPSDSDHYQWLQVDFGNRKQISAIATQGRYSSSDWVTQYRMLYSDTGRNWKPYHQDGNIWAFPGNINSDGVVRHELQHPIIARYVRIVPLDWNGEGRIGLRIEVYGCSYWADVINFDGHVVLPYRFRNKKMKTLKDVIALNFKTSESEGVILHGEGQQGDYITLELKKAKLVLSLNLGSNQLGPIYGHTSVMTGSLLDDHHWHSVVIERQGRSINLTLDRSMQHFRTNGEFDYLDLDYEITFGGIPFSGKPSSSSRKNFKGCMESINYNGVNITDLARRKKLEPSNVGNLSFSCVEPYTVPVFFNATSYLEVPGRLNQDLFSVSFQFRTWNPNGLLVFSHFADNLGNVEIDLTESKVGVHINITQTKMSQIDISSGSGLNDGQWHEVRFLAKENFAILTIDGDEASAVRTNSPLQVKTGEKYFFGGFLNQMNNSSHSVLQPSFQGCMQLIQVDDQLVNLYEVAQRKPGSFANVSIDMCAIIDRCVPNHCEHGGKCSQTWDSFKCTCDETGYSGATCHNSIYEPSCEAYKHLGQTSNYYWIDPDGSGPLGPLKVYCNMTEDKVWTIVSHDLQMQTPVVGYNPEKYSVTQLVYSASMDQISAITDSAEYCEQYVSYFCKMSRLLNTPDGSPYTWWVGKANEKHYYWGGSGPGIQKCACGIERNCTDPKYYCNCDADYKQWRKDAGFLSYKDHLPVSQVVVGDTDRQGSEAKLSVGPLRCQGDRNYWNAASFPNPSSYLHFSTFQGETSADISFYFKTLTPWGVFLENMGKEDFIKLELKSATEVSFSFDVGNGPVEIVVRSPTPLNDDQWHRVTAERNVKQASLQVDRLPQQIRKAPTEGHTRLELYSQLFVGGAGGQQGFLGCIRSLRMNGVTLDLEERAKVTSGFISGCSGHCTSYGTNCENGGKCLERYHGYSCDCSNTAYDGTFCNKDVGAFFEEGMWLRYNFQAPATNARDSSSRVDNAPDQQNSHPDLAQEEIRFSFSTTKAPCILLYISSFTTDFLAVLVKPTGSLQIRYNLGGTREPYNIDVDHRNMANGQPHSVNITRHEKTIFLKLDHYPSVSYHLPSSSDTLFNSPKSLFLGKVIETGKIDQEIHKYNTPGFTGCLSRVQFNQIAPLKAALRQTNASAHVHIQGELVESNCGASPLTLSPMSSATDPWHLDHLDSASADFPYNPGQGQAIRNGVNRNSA

By UniProt entry, the sequences of proteins in these tests, tags left out.
UniProt Q9R0K7: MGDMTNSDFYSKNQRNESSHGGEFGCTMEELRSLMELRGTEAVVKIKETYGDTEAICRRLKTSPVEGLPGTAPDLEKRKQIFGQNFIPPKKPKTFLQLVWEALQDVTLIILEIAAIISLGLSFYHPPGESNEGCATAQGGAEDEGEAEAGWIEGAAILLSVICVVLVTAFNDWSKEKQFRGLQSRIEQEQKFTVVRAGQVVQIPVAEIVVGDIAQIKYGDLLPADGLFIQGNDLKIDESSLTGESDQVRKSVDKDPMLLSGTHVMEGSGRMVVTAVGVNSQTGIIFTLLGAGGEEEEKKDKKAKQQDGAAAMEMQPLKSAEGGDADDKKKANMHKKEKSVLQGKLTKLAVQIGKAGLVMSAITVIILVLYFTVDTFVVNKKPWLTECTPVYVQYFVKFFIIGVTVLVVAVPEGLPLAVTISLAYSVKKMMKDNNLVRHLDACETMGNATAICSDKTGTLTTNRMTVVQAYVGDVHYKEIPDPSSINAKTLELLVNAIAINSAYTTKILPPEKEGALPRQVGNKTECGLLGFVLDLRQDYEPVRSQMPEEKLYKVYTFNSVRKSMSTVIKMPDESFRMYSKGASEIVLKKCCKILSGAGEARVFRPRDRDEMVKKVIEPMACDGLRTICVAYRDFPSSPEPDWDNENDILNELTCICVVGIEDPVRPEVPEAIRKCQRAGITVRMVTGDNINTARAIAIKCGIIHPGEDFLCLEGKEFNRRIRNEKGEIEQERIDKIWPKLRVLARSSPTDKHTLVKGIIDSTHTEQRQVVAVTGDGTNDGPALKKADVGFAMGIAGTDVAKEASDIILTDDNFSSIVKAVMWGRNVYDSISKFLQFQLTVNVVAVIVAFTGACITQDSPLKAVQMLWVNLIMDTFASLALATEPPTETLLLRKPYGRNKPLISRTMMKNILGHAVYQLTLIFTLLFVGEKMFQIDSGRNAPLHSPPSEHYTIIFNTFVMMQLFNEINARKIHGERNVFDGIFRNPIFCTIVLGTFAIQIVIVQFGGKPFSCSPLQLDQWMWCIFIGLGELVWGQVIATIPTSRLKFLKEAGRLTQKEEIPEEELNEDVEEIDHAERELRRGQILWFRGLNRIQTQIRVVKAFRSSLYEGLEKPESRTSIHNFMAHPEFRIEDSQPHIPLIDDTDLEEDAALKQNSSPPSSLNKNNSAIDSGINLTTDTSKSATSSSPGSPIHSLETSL
UniProt Q01814: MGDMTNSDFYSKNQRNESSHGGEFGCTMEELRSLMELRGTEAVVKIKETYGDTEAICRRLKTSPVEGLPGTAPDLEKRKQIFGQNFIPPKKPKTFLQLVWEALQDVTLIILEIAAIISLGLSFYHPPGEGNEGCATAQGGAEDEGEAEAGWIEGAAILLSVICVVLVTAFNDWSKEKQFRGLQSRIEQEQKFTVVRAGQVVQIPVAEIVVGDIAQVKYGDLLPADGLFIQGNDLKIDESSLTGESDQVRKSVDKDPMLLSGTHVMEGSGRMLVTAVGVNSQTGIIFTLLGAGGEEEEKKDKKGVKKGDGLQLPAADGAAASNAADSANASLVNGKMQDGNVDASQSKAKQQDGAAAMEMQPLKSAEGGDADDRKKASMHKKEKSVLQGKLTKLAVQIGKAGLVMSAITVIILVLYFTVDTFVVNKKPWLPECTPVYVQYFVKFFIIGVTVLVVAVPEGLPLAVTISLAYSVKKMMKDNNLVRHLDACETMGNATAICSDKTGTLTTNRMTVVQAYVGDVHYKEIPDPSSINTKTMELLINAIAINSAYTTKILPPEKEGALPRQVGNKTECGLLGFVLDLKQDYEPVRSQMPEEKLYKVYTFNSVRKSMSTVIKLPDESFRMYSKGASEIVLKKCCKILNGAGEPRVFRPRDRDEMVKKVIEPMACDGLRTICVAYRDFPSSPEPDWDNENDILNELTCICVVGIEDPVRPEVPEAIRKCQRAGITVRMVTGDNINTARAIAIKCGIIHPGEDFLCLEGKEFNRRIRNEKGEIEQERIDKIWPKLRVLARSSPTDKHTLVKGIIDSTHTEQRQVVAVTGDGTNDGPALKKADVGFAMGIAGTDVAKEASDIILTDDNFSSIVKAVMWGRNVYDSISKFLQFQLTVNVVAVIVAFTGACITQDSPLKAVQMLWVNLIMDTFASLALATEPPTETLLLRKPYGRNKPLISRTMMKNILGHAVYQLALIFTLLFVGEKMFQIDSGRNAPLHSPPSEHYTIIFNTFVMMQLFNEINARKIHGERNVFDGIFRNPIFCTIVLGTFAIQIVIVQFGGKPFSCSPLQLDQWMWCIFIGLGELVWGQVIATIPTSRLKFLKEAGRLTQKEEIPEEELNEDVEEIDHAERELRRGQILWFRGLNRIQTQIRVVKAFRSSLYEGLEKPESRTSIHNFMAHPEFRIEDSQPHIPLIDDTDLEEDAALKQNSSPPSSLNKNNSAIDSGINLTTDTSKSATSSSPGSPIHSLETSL

[2] = biological target: T2, 1253* CNTNAP2-ecto (human) (UniProt Q9UHC6); assay: pull-down
T2 sequence: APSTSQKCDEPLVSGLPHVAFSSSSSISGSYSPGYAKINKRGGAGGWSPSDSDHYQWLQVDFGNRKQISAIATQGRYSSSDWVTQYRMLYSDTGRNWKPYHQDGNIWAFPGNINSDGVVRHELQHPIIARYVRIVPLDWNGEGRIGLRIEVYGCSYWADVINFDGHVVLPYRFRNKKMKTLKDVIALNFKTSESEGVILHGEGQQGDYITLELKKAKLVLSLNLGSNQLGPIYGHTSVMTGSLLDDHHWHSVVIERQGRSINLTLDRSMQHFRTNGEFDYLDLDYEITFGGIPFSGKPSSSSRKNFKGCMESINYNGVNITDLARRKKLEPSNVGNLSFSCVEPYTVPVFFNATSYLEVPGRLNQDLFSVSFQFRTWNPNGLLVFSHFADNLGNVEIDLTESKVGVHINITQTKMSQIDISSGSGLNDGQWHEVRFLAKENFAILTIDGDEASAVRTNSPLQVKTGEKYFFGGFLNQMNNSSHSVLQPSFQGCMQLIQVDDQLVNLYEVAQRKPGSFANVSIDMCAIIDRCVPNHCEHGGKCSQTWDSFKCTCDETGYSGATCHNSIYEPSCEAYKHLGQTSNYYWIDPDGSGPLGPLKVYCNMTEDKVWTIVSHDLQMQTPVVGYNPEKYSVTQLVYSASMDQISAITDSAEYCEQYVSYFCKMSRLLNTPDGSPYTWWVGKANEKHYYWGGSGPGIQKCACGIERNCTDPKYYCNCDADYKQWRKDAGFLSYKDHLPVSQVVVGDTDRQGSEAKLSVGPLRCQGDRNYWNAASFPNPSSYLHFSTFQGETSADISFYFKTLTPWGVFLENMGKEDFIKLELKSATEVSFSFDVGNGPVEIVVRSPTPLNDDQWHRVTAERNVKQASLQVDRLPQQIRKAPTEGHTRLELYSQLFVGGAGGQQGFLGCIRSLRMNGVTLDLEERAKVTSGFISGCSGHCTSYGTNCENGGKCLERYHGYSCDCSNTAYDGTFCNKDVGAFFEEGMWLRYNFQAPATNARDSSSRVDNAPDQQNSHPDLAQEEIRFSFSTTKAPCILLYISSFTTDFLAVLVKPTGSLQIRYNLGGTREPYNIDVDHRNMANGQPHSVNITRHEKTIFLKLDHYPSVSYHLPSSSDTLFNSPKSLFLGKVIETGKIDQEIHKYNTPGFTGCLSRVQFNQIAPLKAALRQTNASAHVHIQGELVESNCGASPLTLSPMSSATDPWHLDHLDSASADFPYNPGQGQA

## PMCA2 (mouse cortical membranes) (from UniProt Q9R0K7 1-1198)
[1]
  binding: binds

## PMCA2w/b (from UniProt Q01814 1-1243)
[1]
  binding: binds
[2]
  binding: binds

— article doi:10.1101/605378
